Experimental data reported in patent publication EP4692126A1.
No constants are given. Whether binding was seen depends on the method and setting. Some binding calls cover weakened binding; strength is not graded here.

The chains behind the UniProt entries cited, without tags or fusion partners. Residues count along the entry.
UniProt Q13641, residues 32-355: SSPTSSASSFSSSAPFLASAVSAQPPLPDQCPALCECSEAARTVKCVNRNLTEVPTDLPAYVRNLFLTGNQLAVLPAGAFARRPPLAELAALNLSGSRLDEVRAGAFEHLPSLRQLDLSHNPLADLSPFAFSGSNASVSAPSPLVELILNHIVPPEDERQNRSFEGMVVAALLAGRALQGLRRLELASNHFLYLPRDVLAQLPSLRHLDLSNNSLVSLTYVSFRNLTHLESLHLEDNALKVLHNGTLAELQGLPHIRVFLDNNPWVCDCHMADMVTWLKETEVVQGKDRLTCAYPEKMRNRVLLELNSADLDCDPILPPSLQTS

Target: TPBG-His (UniProt Q13641)
Assay: SPR (Biacore 8K), single concentration

Row | binding | Binder
1 | binds | hB5-2-1 (antibody, human IgG1, kappa, V domains shown) VH: EVQLVESGGGLVQPGGSLRLSCAASGFTFRNYAMSWVRQAPGKGLEWVAEISTGGSYTYYPDTVTGRFTISRDNAKNSLYLQMNSLRAEDTAVYYCAFYYYGSSYSMDYWGQGTLVTVSS VL: DIQMTQSPSSLSASVGDRVTISCRASQDISNYLNWYQQKPGKAPKLLIYHTSILHSGVPSRFSGSGSGTDYSLTISSLQPEDIATYFCQQGDTVPLTFGGGTKVEIKR
2 | binds | hB5-2-13 (antibody, human IgG1, kappa, V domains shown) VH: EVQLVESGGGVVQPGRSLRLSCAASGFTFRNYAMSWVRQAPGKGLEWVAEISTGGSYTYYPDTVTGRFTISRDNSKNTLYLQMSSLRAEDTAVYYCAFYYYGSSYSMDYWGQGTLVTVSS VL: DIQMTQSPSSLSASVGDRVTISCRASQDISNYLNWYQQKPGKAPKLLIYHTSILHSGVPSRFSGSGSGTDYSLTISSLQPEDIATYFCQQGDTVPLTFGGGTKVEIKR
3 | binds | hB5-2-6 (antibody, human IgG1, kappa, V domains shown) VH: EVQLVESGGGLVQPGGSLRLSCAASGFTFRNYAMSWVRQAPGKGLEWVAEISTGGSYTYYPDTVTGRFTISRDNSKNTLYLQMNSLRAEDTAVYYCAFYYYGSSYSMDYWGQGTLVTVSS VL: DIQMTQSPSSLSASVGDRVTISCRASQDISNYLNWYQQKPGKVPKLLIYHTSILHSGVPSRFSGSGSGTDYSLTISSLQPEDVATYFCQQGDTVPLTFGGGTKVEIKR
4 | binds | hB5-2-14 (antibody, human IgG1, kappa, V domains shown) VH: EVQLVESGGGVVQPGRSLRLSCAASGFTFRNYAMSWVRQAPGKGLEWVAEISTGGSYTYYPDTVTGRFTISRDNSKNTLYLQMSSLRAEDTAVYYCAFYYYGSSYSMDYWGQGTLVTVSS VL: DIQMTQSPSSLSASVGDRVTISCRASQDISNYLNWYQQKPGKVPKLLIYHTSILHSGVPSRFSGSGSGTDYSLTISSLQPEDVATYFCQQGDTVPLTFGGGTKVEIKR
5 | binds | hB5-2-4 (antibody, human IgG1, kappa, V domains shown) VH: EVQLVESGGGLVQPGGSLRLSCAASGFTFRNYAMSWVRQAPGKGLEWVAEISTGGSYTYYPDTVTGRFTISRDNAKNSLYLQMNSLRAEDTAVYYCAFYYYGSSYSMDYWGQGTLVTVSS VL: DIQMTQSPSSLSASVGDRVTISCRASQDISNYLNWYQQKPGKAPKLLIYHTSILHSGVPSRFSGSGSGTDYSLTISSLQPEDFATYFCQQGDTVPLTFGGGTKVEIKR
6 | binds | hB5-2-15 (antibody, human IgG1, kappa, V domains shown) VH: EVQLVESGGGVVQPGRSLRLSCAASGFTFRNYAMSWVRQAPGKGLEWVAEISTGGSYTYYPDTVTGRFTISRDNSKNTLYLQMSSLRAEDTAVYYCAFYYYGSSYSMDYWGQGTLVTVSS VL: DIQMTQTTSSLSASVGDRVTISCRASQDISNYLNWFQQKPGKAPKSLIYHTSILHSGVPSKFSGSGSGTDYSLTISSLQPEDFATYFCQQGDTVPLTFGGGTKVEIKR
7 | binds | hB5-2-8 (antibody, human IgG1, kappa, V domains shown) VH: EVQLVESGGGLVQPGGSLRLSCAASGFTFRNYAMSWVRQAPGKGLEWVAEISTGGSYTYYPDTVTGRFTISRDNSKNTLYLQMNSLRAEDTAVYYCAFYYYGSSYSMDYWGQGTLVTVSS VL: DIQMTQSPSSLSASVGDRVTISCRASQDISNYLNWYQQKPGKAPKLLIYHTSILHSGVPSRFSGSGSGTDYSLTISSLQPEDFATYFCQQGDTVPLTFGGGTKVEIKR
8 | binds | hB5-2-16 (antibody, human IgG1, kappa, V domains shown) VH: EVQLVESGGGVVQPGRSLRLSCAASGFTFRNYAMSWVRQAPGKGLEWVAEISTGGSYTYYPDTVTGRFTISRDNSKNTLYLQMSSLRAEDTAVYYCAFYYYGSSYSMDYWGQGTLVTVSS VL: DIQMTQSPSSLSASVGDRVTISCRASQDISNYLNWYQQKPGKAPKLLIYHTSILHSGVPSRFSGSGSGTDYSLTISSLQPEDFATYFCQQGDTVPLTFGGGTKVEIKR
9 | binds | hB5-2-2 (antibody, human IgG1, kappa, V domains shown) VH: EVQLVESGGGLVQPGGSLRLSCAASGFTFRNYAMSWVRQAPGKGLEWVAEISTGGSYTYYPDTVTGRFTISRDNAKNSLYLQMNSLRAEDTAVYYCAFYYYGSSYSMDYWGQGTLVTVSS VL: DIQMTQSPSSLSASVGDRVTISCRASQDISNYLNWYQQKPGKVPKLLIYHTSILHSGVPSRFSGSGSGTDYSLTISSLQPEDVATYFCQQGDTVPLTFGGGTKVEIKR
10 | binds | hB5-2-7 (antibody, human IgG1, kappa, V domains shown) VH: EVQLVESGGGLVQPGGSLRLSCAASGFTFRNYAMSWVRQAPGKGLEWVAEISTGGSYTYYPDTVTGRFTISRDNSKNTLYLQMNSLRAEDTAVYYCAFYYYGSSYSMDYWGQGTLVTVSS VL: DIQMTQTTSSLSASVGDRVTISCRASQDISNYLNWFQQKPGKAPKSLIYHTSILHSGVPSKFSGSGSGTDYSLTISSLQPEDFATYFCQQGDTVPLTFGGGTKVEIKR
11 | binds | hB5-2-5 (antibody, human IgG1, kappa, V domains shown) VH: EVQLVESGGGLVQPGGSLRLSCAASGFTFRNYAMSWVRQAPGKGLEWVAEISTGGSYTYYPDTVTGRFTISRDNSKNTLYLQMNSLRAEDTAVYYCAFYYYGSSYSMDYWGQGTLVTVSS VL: DIQMTQSPSSLSASVGDRVTISCRASQDISNYLNWYQQKPGKAPKLLIYHTSILHSGVPSRFSGSGSGTDYSLTISSLQPEDIATYFCQQGDTVPLTFGGGTKVEIKR
12 | binds | hB5-2-3 (antibody, human IgG1, kappa, V domains shown) VH: EVQLVESGGGLVQPGGSLRLSCAASGFTFRNYAMSWVRQAPGKGLEWVAEISTGGSYTYYPDTVTGRFTISRDNAKNSLYLQMNSLRAEDTAVYYCAFYYYGSSYSMDYWGQGTLVTVSS VL: DIQMTQTTSSLSASVGDRVTISCRASQDISNYLNWFQQKPGKAPKSLIYHTSILHSGVPSKFSGSGSGTDYSLTISSLQPEDFATYFCQQGDTVPLTFGGGTKVEIKR
